In PubChem BioAssay AID1347075 (National Center for Advancing Translational Sciences (NCATS), 2019):
Screen size: about 400,000 compounds; about 5,500 (1.4%) were called active. Inconclusive means that the source gave no clear call. Such entries were picked first, then a sample of the others. Calls follow the shape of the dose curve; as a rule, active = well fitted cell-killing curve with a large enough effect; inconclusive = small, poorly fitted or top-dose-only effect, or effect the other way; inactive = flat fitted curve, though single readings scatter. Where the call is inconclusive, the potency comes from a doubtful curve fit.

Experiment: qHTS assay for MDR1-selective chemotherapeutics: Primary screen using the parental adenocarcinoma cell KB-3-1; also: nearly all actives have a fitted effect of over 60% in size
Conditions: KB-3-1 viability, CellTiter-Glo ATP luminescence, 72 h; activity change, negative = cytotoxic: at 46.1 µM (top of the series)
How it was run: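 72 h, 37 °C compound treatment of KB-3-1 parental cells; CellTiter-Glo added, 10 min, luminescence read. Data corrected against DMSO-only plates and normalized before curve fitting.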
% is scaled to controls: 0 for no effect and ±100 for the full control effect; potency is read from the fitted curve at half-maximal effect.

Structure (SMILES) | Potency | activity change, negative = cytotoxic
N#Cc1c(N)nc2c(c1-c1ccccc1)CCC2 | inconclusive: 20.6 µM [cytotoxic, single point] | –
O=C(Nc1ccc(Br)cc1)c1cccc(S(=O)(=O)N2CCc3ccccc32)c1 | inconclusive: 4.61 µM [cytotoxic, full curve, poor fit] | –
COC(=O)c1ccc2nc(-c3ccc(Cl)cc3)c(Cc3ccsc3)n2c1 | inconclusive: 20.6 µM [cytotoxic, single point] | –
CN(C)C(=O)c1ccc(/C=C/c2ccnc3ccccc23)cc1 | inconclusive: 32.6 µM [cytotoxic, single point] | –
O=C1/C(=C/c2ccncc2)Oc2cc(OS(=O)(=O)c3ccccc3)ccc21 | inconclusive: 23.1 µM [cytotoxic, single point] | –
COc1ccc(NC(=O)NCCCN2CCC(Cc3ccccc3)CC2)cc1 | inactive | –
Cc1ccc(/C=C2\C(=O)NC(=O)N2C)o1 | inconclusive: 32.6 µM [cytotoxic, single point] | –
CCOC(=O)[C@]12CCC=C1N(Cc1ccc3c(c1)OCO3)C(=O)[C@H](CC(=O)NCc1cccc3ccccc13)C2 | inconclusive: 20.6 µM [cytotoxic, single point] | –
CC1=CCC2C(=O)N(c3ccc(C)c(Br)c3)C(=O)C2C1 (stereo not drawn) | – | inconclusive: 11.7%
Cc1ccc(/C(N)=N/OC(=O)c2ccc(Cl)cc2Cl)cc1 | inconclusive: 0.0461 µM [rising, full curve] | –
O=C(NCc1ccc(F)cc1)c1ccc(CS(=O)Cc2ccccc2Cl)o1 (stereo not drawn) | inconclusive: 20.6 µM [cytotoxic, partial curve, poor fit] | –
COc1cc(/C=C2/SC(=S)N(Cc3ccccc3)C2=O)cc(Cl)c1O | inconclusive: 14.6 µM [cytotoxic, partial curve, poor fit] | –
COc1ccccc1CNc1nc(NCCOc2ccccc2Cl)c2sccc2n1 | inconclusive: 23.1 µM [cytotoxic, single point] | –
COc1ccc(N2CCN(C3CCCN(S(=O)(=O)c4ccc(C)cc4C)C3)CC2)cc1 (stereo not drawn) | active: 25.9 µM | –
C/C(=N\NC(=O)c1cc(O)ccc1O)c1cccc(NC(=O)c2cccc(Cl)c2)c1 | – | inconclusive: 31.1%
COc1ccc(-n2nc3c(c2NC(=O)CCl)CSC3)cc1 | active: 23.1 µM | –
CCC(=O)OC1(C)C(=O)C=C2C=C(c3ccc(C#N)cc3)OC=C2C1=O (stereo not drawn) | inconclusive: 5.8 µM [rising, partial curve] | –
Cc1oc2c(c1C(=O)c1ccccc1)C(=O)C(=O)c1ccccc1-2 | inconclusive: 2.06 µM [cytotoxic, partial curve, poor fit] | –
COc1cc(OC)cc(-c2c(-c3cccs3)c3cc(-c4cnc(OC)nc4)ccc3n2C)c1 | inconclusive: 32.6 µM [cytotoxic, partial curve, poor fit] | –
Cc1cccc(N2CCN(C(=S)c3ccc(-c4ccccc4[N+](=O)[O-])o3)CC2)c1 | active: 16.4 µM | –
CCCN(CCC)S(=O)(=O)c1cccc(C(=O)Nc2ccc3c(c2)OCO3)c1 | inconclusive: 20.6 µM [cytotoxic, single point] | –
COc1ccc(CCn2c(C)cc(C(=O)CCl)c2C)cc1OC | inconclusive: 20.6 µM [cytotoxic, single point] | –
CCCCOCCCN1CC(=O)N2C(C)c3[nH]c4ccccc4c3C[C@H]2C1=O (stereo partly drawn) | inconclusive: 0.013 µM [rising, full curve] | –

No new results follow: four of the compounds above.
Structure (SMILES) | Potency | activity change, negative = cytotoxic
O=C1/C(=C/c2ccncc2)Oc2cc(OS(=O)(=O)c3ccccc3)ccc21 | inconclusive: 23.1 µM [cytotoxic, single point] | –
COc1ccc(NC(=O)NCCCN2CCC(Cc3ccccc3)CC2)cc1 | inactive | –
Cc1ccc(/C=C2\C(=O)NC(=O)N2C)o1 | inconclusive: 32.6 µM [cytotoxic, single point] | –
CCOC(=O)[C@]12CCC=C1N(Cc1ccc3c(c1)OCO3)C(=O)[C@H](CC(=O)NCc1cccc3ccccc13)C2 | inconclusive: 20.6 µM [cytotoxic, single point] | –

Further results.

Structure (SMILES) | Potency | activity change, negative = cytotoxic
COc1ccc(CCCNC(=O)C2Cc3c(-c4ccc(NC(C)=O)cc4)ccnc3O2)cc1 (stereo not drawn) | inconclusive: 29.1 µM [cytotoxic, single point] | –
CC(C)(C)NC(=O)C(c1ccc(-c2ccccc2)cc1)N(C[C@H]1CC[C@@H]([C@@H]2CC[C@H](CO)O2)O1)C(=O)c1cccc(Cl)c1 (stereo partly drawn) | active: 14.6 µM | –
c1ccc2[nH]c(CSc3nnc(-c4ccncc4)o3)nc2c1 | inactive | –
C=CCn1c(SCC(=O)NCc2ccccc2)nnc1-c1cc(Br)ccc1O | inconclusive: 16.4 µM [cytotoxic, single point] | –
COc1ccc(C)cc1NC(=O)CCN1CCN(C/C=C/c2ccccc2)CC1 | inactive | –
NNc1nc(-c2ccccc2)cc(-c2ccccc2O)n1 | inconclusive: 18.4 µM [cytotoxic, partial curve, poor fit] | –
O=C(NCc1cccnc1)c1cccc(NS(=O)(=O)c2ccc(Br)cc2)c1 | active: 5.8 µM | –
Cc1cc([N+](=O)[O-])ccc1NCc1ccccc1[N+](=O)[O-] | inconclusive: 10.3 µM [rising, partial curve, poor fit] | –
O=c1[nH]cnc2c1ccn2C1OC(CO)C(O)C1O (stereo not drawn) | active: 14.6 µM | –
COc1cc2c(cc1OC)CN(C(C)C(=O)N1CCc3ccccc31)CC2 (stereo not drawn) | inconclusive: 29.1 µM [cytotoxic, single point] | –
C[C@@]12CCC=C[C@H]1[C@H](c1ccc3ccccc3c1)N(Cc1ccccc1)C2=O | inconclusive: 29.1 µM [cytotoxic, single point] | –
COc1cc(Br)cc(C(=O)N2CCc3ccccc32)c1OC | inconclusive: 20.6 µM [cytotoxic, single point] | –
CNC(=S)N(Cc1ccc2c(c1)OCO2)C1CC(=O)N(c2ccc(F)cc2)C1=O (stereo not drawn) | inconclusive: 18.4 µM [cytotoxic, single point] | –
Oc1ccc(-c2nc(-c3ccc(O)c(O)c3)cs2)cc1 | active: 0.517 µM | –
O=C(N/N=C/c1ccc([N+](=O)[O-])o1)c1cc(-c2ccncc2)nc2ccccc12 | inconclusive: 7.08 µM [cytotoxic, full curve, poor fit] | –
COc1ccc(-c2noc(C3CCCN(C(=O)c4ccc(F)cc4)C3)n2)cc1 (stereo not drawn) | inconclusive: 29.1 µM [cytotoxic, single point] | –
CCOc1ccccc1NC(=O)Cn1nnc(C(=O)NCc2ccc3c(c2)OCO3)c1N | active: 9.2 µM | –
CCC(C)c1ccc(OCC(=O)Nc2ccc(-c3nc4ncccc4o3)cc2)cc1 (stereo not drawn) | inactive | –
CCOC(=O)c1ccc(NC(=O)c2c(NCc3cccc(OC)c3OC)sc3c2CCC3)cc1 | inactive | –
Cc1c(C(C)NC(=O)c2cc(COc3cccc4cnccc34)on2)cnn1C (stereo not drawn) | active: 20.6 µM | –
COc1ccc(C(=O)N2CCCC2)cc1S(=O)(=O)N1CCOCC1 | active: 23.1 µM | –
COc1ccc(-c2cc3nc(C)n(N)c(=O)c3s2)cc1 | inconclusive: 29.1 µM [cytotoxic, single point] | –
COC(=O)c1ccc(C23CC4(C2)[C@H](CN(Cc2cccnc2)[C@@H]4c2ccccc2)C3c2ccccc2)cc1 (stereo partly drawn) | inconclusive: 29.1 µM [cytotoxic, single point] | –

Structure (SMILES) | Potency | activity change, negative = cytotoxic
COc1ccc(NC(=O)CN2C(=O)c3ccccc3Sc3ccc(C(=O)N4CCOCC4)cc32)c(OC)c1 | inactive | –
O=C(Nc1ccc(Cl)c(Cl)c1)Nc1nnc(CSc2ccccc2)s1 | inconclusive: 11.6 µM [cytotoxic, partial curve, poor fit] | –
O=C(C1CC1)N1CCc2cc(Br)cc(S(=O)(=O)N3CCCCCC3)c21 | inconclusive: 16.4 µM [cytotoxic, single point] | –
Cc1nc2c(C(=O)NCc3ccc4c(c3)OCO4)cnn2c(C)c1Cc1ccc(F)cc1Cl | inconclusive: 14.6 µM [cytotoxic, partial curve, poor fit] | –
CCCCNc1c(-c2ccc(SC3CCCCC3)c(OC)c2)nc2ccc(C)cn12 | inconclusive: 23.1 µM [cytotoxic, single point] | –
COc1cccc(CNC(=O)COCc2cc(-c3ccc4c(c3)OCO4)on2)c1 | inactive | –
CCc1ccc(NC(=O)c2nnn(Cc3cccc(C(F)(F)F)c3)c2N)cc1 | inconclusive: 18.4 µM [rising, single point] | –
COc1cccc(C(N)c2nc(-c3csc4ccccc34)cs2)c1 (stereo not drawn) | active: 7.31 µM | –
Cc1ccc(-c2noc(CCC(=O)NCCCN3CCN(c4ccc(F)cc4)CC3)n2)cc1 | inconclusive: 29.1 µM [cytotoxic, single point] | –
COc1ccc(S(=O)(=O)N2CCCC(C(=O)Nc3cccnc3)C2)cc1Cl (stereo not drawn) | active: 16.4 µM | –
COc1ccc(NC(=O)Nc2c[nH]c(=O)[nH]c2=O)c(OC)c1 | inactive | –
O=[N+]([O-])c1ccccc1S(=O)(=O)N1CCN(c2nc(-c3cccs3)nc3ccccc23)CC1 | inactive | –
Cc1cc(NC(=O)COC(=O)c2ccc(S(=O)(=O)N3CCCc4ccccc43)cc2)no1 | active: 14.6 µM | –
COc1ccccc1CNC(=O)CSc1ncc2c(n1)-c1cc(Cl)ccc1N(Cc1ccccc1)S2(=O)=O | inactive | –
CCOC(=O)c1c(NC(=O)Cc2cccs2)sc(C(=O)NC2CCCC2)c1C | inactive | –
CCn1c(CN2CCOCC2)nc2cc(NC(=O)c3ccc([N+](=O)[O-])cc3)ccc21 | active: 16.4 µM | –
CCn1ncc(/C=N/N=C2\CCC3C4CCc5cc(O)ccc5C4CCC23C)c1C (stereo not drawn) | inconclusive: 18.4 µM [cytotoxic, single point] | –
c1cc2c(cc1C1CCCCC1)c1c3n2CCN=C3CCC1 | inconclusive: 18.4 µM [cytotoxic, single point] | –
COc1ccc(-c2sc3ccccc3c2/C=C/c2ccncc2)cc1 | inconclusive: 29.1 µM [cytotoxic, single point] | –
O=C(NCc1cccnc1)C1Cc2c(-c3ccc(Cl)cc3)ccnc2O1 (stereo not drawn) | inconclusive: 20.6 µM [cytotoxic, single point] | –
Nc1ccccc1S(N)(=O)=O | inactive | –
CCN(CC(=O)Nc1ccc(NC(C)=O)cc1)C(=O)c1cc(-c2ccccc2Cl)nc2ccccc12 | inconclusive: 29.1 µM [cytotoxic, single point] | –
